Assay results reported in PubChem BioAssay AID2551 (National Center for Advancing Translational Sciences (NCATS), 2010).
The campaign covered roughly 310,000 compounds. About 17,000 (5.5%) were called active. The inconclusive results got no clear call from the source; some entries with a clear call stand among them for comparison. Calls come from the whole dose curve; as a rule, active = well fitted inhibition curve with a large enough effect; inconclusive = small, poorly fitted or top-dose-only effect, or effect the other way; inactive = no such curve, though single readings can be large or run the other way. Potencies beside an inconclusive call are fits to weak or partial responses and may not hold up.

Amino acid sequences for entries named in this document (tags omitted). A change or cut given only in a name is not applied to a line headed by its entry.
UniProt P51450: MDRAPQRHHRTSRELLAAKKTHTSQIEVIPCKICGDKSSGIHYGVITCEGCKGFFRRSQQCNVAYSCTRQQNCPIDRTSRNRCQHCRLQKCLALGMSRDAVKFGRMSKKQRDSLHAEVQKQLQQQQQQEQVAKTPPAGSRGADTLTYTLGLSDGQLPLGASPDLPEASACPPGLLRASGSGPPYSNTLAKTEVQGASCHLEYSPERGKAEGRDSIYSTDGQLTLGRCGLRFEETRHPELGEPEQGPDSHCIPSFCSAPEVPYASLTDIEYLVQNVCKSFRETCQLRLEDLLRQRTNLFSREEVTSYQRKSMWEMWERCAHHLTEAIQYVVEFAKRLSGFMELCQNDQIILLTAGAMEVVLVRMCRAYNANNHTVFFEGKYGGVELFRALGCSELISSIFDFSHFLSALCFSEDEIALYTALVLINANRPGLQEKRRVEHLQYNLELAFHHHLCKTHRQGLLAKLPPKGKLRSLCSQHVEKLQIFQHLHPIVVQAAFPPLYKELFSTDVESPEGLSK

These compounds were tested against Nuclear receptor ROR-gamma (Mus musculus) (UniProt P51450) (assay: qHTS for inhibitors of ROR gamma transcriptional activity). Settings: Drosophila S2 Gal4-RORgamma UAS-luciferase reporter, 20 h; activity change, negative = inhibition: at 53.6 µM (top of the series).
Summary of the method: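 A Gal4/UAS one-hybrid system in insect cells: metallothionein-promoter Gal4–ROR gamma fusion plus Photinus luciferase reporter. Copper sulfate 700 uM final, 20 hr ambient incubation, luminescent detection after 10 min with reagent.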
% is set by controls: 0 for no effect and ±100 for the full control effect; potency is the fitted concentration of half-maximal effect.
Note: nearly all actives have a fitted effect of over 60% in size.

SMILES	Potency	activity change, negative = inhibition
Cc1cc(C(=O)COC(=O)c2ccc[nH]c2=O)c(C)n1C	inconclusive: 35.5 µM [inhibitor, single point]	–
O=C(Cc1sc(Nc2ccccc2)nc1-c1ccccc1)NCc1ccccc1	inconclusive: 31.6 µM [inhibitor, single point]	–
COc1ccc(N2Cc3cccc(C(=O)O)c3C2=O)cc1	inconclusive: 7.94 µM [activator, partial curve]	–
CC(=O)c1cccc(NC(=O)C2CCN(C(=O)c3cccs3)CC2)c1	–	inactive: 8.53%
O=C1[C@@H]2Cc3c([nH]c4ccccc34)C(c3cccc(Br)c3)N2C(=O)CN1C1CCN(Cc2ccccc2)CC1 (stereo partly drawn)	inconclusive: 35.5 µM [inhibitor, single point]	–
CCOC(=O)C1C(c2ccc(C(=O)O)cc2)NC(=O)NC1(O)C(F)(F)F (stereo not drawn)	–	inactive: 21.5%
Cc1cc(C(=O)N2CCCC(C(=O)c3ccc(Oc4ccccc4)cc3)C2)n[nH]1 (stereo not drawn)	inconclusive: 17.8 µM [activator, partial curve]	–
Cc1cccc(-n2ncc3c2CCCC3NC(=O)C2CCOCC2)c1C (stereo not drawn)	inconclusive: 11.2 µM [activator, partial curve]	–
COc1ccc([N+](=O)[O-])cc1C(=O)Nc1ccc(OCC(=O)N2CCOCC2)cc1	inconclusive: 7.08 µM [activator, partial curve]	–
O=C(NC(=S)Nc1ccc(Oc2ccc(Cl)cc2)cc1)c1ccccc1	active: 3.55 µM	–
O=C(CSc1nc2ccccc2s1)Nc1ccc(Cl)c(S(=O)(=O)N2CCOCC2)c1	inconclusive: 17.8 µM [activator, single point]	–
COc1ccc(/C=C2/C(=O)N(c3nc4ccccc4s3)N=C2CSc2ccc(Cl)cc2)cc1	active: 14.1 µM	–
Cn1c(=O)c2c(ncn2CCOc2ccc(Br)cc2)n(C)c1=O	inconclusive: 22.4 µM [activator, single point]	–
CCN1CCN(CC(=O)c2ccc(OC)cc2)CC1	–	inactive: 1.17%
O=C(NCc1ccccn1)C12CC3CC(CC(C3)C1)C2	–	inactive: -17.9%
CCCC(=O)NC(=S)Nc1ccccc1C(=O)OC	active: 15.8 µM	–
COC(=O)c1cc(C#N)c(OC)nc1C	inconclusive: 15.8 µM [inhibitor, single point]	–
CC(=O)c1ccc(OCC(O)CN2CCN(S(=O)(=O)c3cccc(Br)c3)CC2)cc1 (stereo not drawn)	–	inactive: 1.55%
N#Cc1cccc(-c2cc(NCc3cccs3)ncn2)c1	inconclusive: 11.2 µM [activator, partial curve]	–
NC(=O)C1C(c2ccccc2)=C1c1ccccc1	–	inactive: 13.1%
CCOC(=O)C1(CCCc2ccccc2)CCN(C(=O)c2cnc(C)cn2)CC1	inconclusive: 35.5 µM [activator, single point]	–
C/C(CC(=O)N1CCN(C=O)CC1)=N\NC(=O)c1ccc(Cl)cc1	inconclusive: 35.5 µM [inhibitor, single point]	–
O=C(N/N=C/c1ccc(OC2CSC2)cc1)c1ccccc1	inconclusive: 35.5 µM [inhibitor, single point]	–
CC(=O)NC(=S)Nc1ccc(-c2nc3ccc(C)cc3s2)cc1	active: 0.501 µM	–
CC(C)(C)OC(=O)N1CCC[C@H]1c1nnc(SCc2ccccc2)o1	–	inactive: 4.72%

Quoted at random: 2 compounds from above
SMILES	Potency	activity change, negative = inhibition
C/C(CC(=O)N1CCN(C=O)CC1)=N\NC(=O)c1ccc(Cl)cc1	inconclusive: 35.5 µM [inhibitor, single point]	–
COc1ccc([N+](=O)[O-])cc1C(=O)Nc1ccc(OCC(=O)N2CCOCC2)cc1	inconclusive: 7.08 µM [activator, partial curve]	–

Later entries:

SMILES	Potency	activity change, negative = inhibition
O=C(Nc1ccc2c(c1)OCO2)c1ccc(COc2ccc3c(c2)CCC3)o1	inconclusive: 35.5 µM [activator, single point]	–
COc1ccc(N=Nc2cc(C)ccc2O)cc1	inconclusive: 15.8 µM [inhibitor, single point]	–
CCOC(=O)c1cc(-c2ccc(/C=C3/C(=O)NC(=O)C(C#N)=C3C)o2)ccc1Cl	inconclusive: 11.2 µM [activator, partial curve]	–
COc1ccc(N2CCN(C(=O)CSc3nnc(CNc4ccccc4)o3)CC2)cc1	inconclusive: 0.158 µM [activator, full curve, poor fit]	–
CCCCNc1ccc(S(=O)(=O)c2cccc([N+](=O)[O-])c2)cc1[N+](=O)[O-]	inconclusive: 10 µM [activator, partial curve]	–
CCc1ccc(-n2nnnc2SCC(=O)Nc2ccc(NC(C)=O)cc2)cc1	inconclusive: 12.6 µM [activator, single point]	–
Cn1c(CCNC(=O)c2cc(COc3ccc(F)c(F)c3)on2)nc2ccccc21	inconclusive: 8.91 µM [activator, partial curve, poor fit]	–
Cc1ccc(/C=C/c2nc3ccccc3s2)s1	inconclusive: 10 µM [inhibitor, partial curve, poor fit]	–
N#CCCn1c(=O)c(CCc2ccccc2)nc2cnc(N3CCOCC3)nc21	–	inactive: 2.46%
Cc1ccc2nc(Cl)c(/C=N/Nc3nc(C)cc(C)n3)c(=O)n2c1	inconclusive: 12.6 µM [inhibitor, single point]	–
COC(=O)C1=C(C)N(C)C(=S)N(C)C1c1cccc(Br)c1 (stereo not drawn)	–	inactive: -37.5%
CN(C)CCCNc1ncc(C(F)(F)F)cc1Cl	inconclusive: 35.5 µM [inhibitor, single point]	–
Cc1ccccc1N1CCN(C2=NC(=O)/C(=C\c3cccs3)S2)CC1	inconclusive: 17.8 µM [activator, partial curve, poor fit]	–
Cc1sc2ncnc(N(C)CCc3ccccn3)c2c1C	–	inactive: -7.18%
CCN(CC)S(=O)(=O)c1ccc(S(=O)(=O)N(Cc2ccccn2)Cc2ccco2)cc1	inconclusive: 35.5 µM [inhibitor, single point]	–
CNc1ccc(C(=O)N2CCN(S(=O)(=O)c3ccc4c(c3)OCCCO4)CC2)cc1[N+](=O)[O-]	inconclusive: 35.5 µM [activator, single point]	–
O=C(Nc1cccc2ncccc12)c1cc([N+](=O)[O-])ccc1Cl	–	inactive: -19.7%
CN1CCN(c2ccc(NC(=O)c3ccco3)cc2Cl)CC1	inconclusive: 25.1 µM [inhibitor, single point]	–
O=C(C1CC1)N(CCN(Cc1ccccc1)C(=O)C1CC1)Cc1ccccc1	–	inactive: 10%
O=C(CSc1nnc(SCc2cccc3ccccc23)s1)N=Nc1c(O)[nH]c2ccccc12	–	inactive: 7.71%
NC(=O)Cn1nc(C(F)(F)F)c2c1CCCC2	inconclusive: 12.6 µM [activator, partial curve]	–
CC(=O)Nc1ccc(OCC(O)Cn2c3ccccc3c3ccccc32)c(C)c1 (stereo not drawn)	inconclusive: 22.4 µM [activator, single point]	–
CCOC(=O)C1=C(CP(=O)(c2ccccc2)c2ccccc2)NC(=O)NC1c1ccc(Cl)cc1 (stereo not drawn)	inconclusive: 7.08 µM [activator, partial curve]	–
O=C(c1cccc(F)c1)N1CCC2(CCCN(c3ncccn3)C2)CC1	–	inactive: -16.6%
Cc1ccc(OCC(=O)Nc2nnc(-c3ccco3)s2)cc1	inconclusive: 14.1 µM [activator, single point]	–

Full records, quoted from the list:
O=C(Cc1sc(Nc2ccccc2)nc1-c1ccccc1)NCc1ccccc1 in the list: Potency: inconclusive: 31.6 µM [inhibitor, single point]
CCCC(=O)NC(=S)Nc1ccccc1C(=O)OC in the list: Potency: active: 15.8 µM
COc1ccc(N2Cc3cccc(C(=O)O)c3C2=O)cc1 in the list: Potency: inconclusive: 7.94 µM [activator, partial curve]

(listing goes on)

SMILES	Potency	activity change, negative = inhibition
CC(NC=C1C(=O)OC(C)(C)OC1=O)C(=O)O (stereo not drawn)	–	inactive: 5.23%
CCc1c(C)nc2ncnn2c1NCCc1ccc(OC)c(OC)c1	inconclusive: 5.62 µM [activator, full curve, poor fit]	–
CCCCCCCc1ccc(-c2ccc(O)cc2)nc1	inconclusive: 4.47 µM [inhibitor, partial curve, poor fit]	–
CCN(c1ccccc1)S(=O)(=O)c1ccc(Cl)c(NC(=O)CSc2nncs2)c1	inconclusive: 10 µM [activator, partial curve]	–
Cc1ccc(Cl)cc1NC1=C/C(=N\S(=O)(=O)c2cccs2)c2ccccc2C1=O	–	inactive: -91.7%
Cc1cc2c(C)cc(=O)[nH]c2cc1NC(=O)CCl	inconclusive: 14.1 µM [inhibitor, single point]	–
O=C(On1c(-c2ccccc2)nc2ccccc2c1=O)c1ccco1	active: 11.2 µM	–
O=C(CCn1c(=O)c2sccc2n(CC(=O)OCc2ccccc2)c1=O)NCc1ccco1	inconclusive: 14.1 µM [activator, single point]	–
O=C(Nc1nc(-c2ccccn2)cs1)C1CC1	active: 15.8 µM	–
COCCCNC(=S)N/N=C/c1ccc(OC)cc1	active: 5.62 µM	–
CCOC(=O)C(=O)Nc1nnc(COc2ccccc2)s1	–	inactive: -24.1%
CC(=O)OC1C(N2CCCCC2)c2c(ccc(/C=C/C(=O)N3CCCCC3)c2O)OC1(C)C (stereo not drawn)	inconclusive: 2.82 µM [inhibitor, full curve]	–
COCCNC(=S)NNC(=O)c1cc(C2CC2)nc2ccccc12	active: 11.2 µM	–
CN1C(=C2C(=O)OC(C)(C)OC2=O)Sc2ccccc21	inconclusive: 11.2 µM [inhibitor, single point]	–
CCCn1c(C)nc2c(NCC3CCCN3CC)nc(C)nc21 (stereo not drawn)	–	inactive: -24.4%
COc1ccc(C(=O)Nc2ccc3ncccc3c2)cc1	inconclusive: 14.1 µM [inhibitor, single point]	–
CCOC(=O)c1c(C)n(-c2ccc(C)cc2)c2ccc(OCC(O)CNCCCO)cc12 (stereo not drawn)	active: 7.08 µM	–
CN(C)C(=O)C1C2NC(=S)N(c3ccc(Cl)cc3)C1(C)Oc1ccc(Cl)cc12 (stereo not drawn)	active: 10 µM	–
Cc1cccc(NC(=O)CSc2nc(C3CC3)nc3ccccc23)c1	–	inactive: -29.9%
CC(=O)Nc1ccc(SCC(c2ccccc2)N2CCN(CC(C)C)CCC2=O)cc1 (stereo not drawn)	inconclusive: 2.51 µM [activator, partial curve]	–
Cc1ccc(Oc2nc(C(F)(F)F)nc3ccccc23)cc1	inconclusive: 0.447 µM [inhibitor, single point]	–
CC(C)COc1ccc(C(=O)Nc2ncn[nH]2)cc1	active: 2.82 µM	–
CCc1c(C)nc2c(Br)cccc2c1SCCC#N	–	inactive: 22.4%
